# Source: PubChem BioAssay AID504467 (National Center for Advancing Translational Sciences (NCATS), 2011)
# Hit rate of the full screen: of about 330,000 compounds, about 7,700 (2.3%) were called active. The shares of active, inactive and inconclusive entries below differ from those in the screen. The call rests on the fitted dose curve; in most records, active means well fitted inhibition curve with a large enough effect; inconclusive means small, poorly fitted or top-dose-only effect, or effect the other way; inactive means flat fitted curve, though single readings scatter. A potency beside an inconclusive call is a rough fit, not a confirmed value.
# Experiment: qHTS screen for small molecules that inhibit ELG1-dependent DNA repair in human embryonic kidney (HEK293T) cells expressing luciferase-tagged ELG1; further: nearly all actives have a fitted effect of over 55% in size
# Settings: HEK293T ELG1-luciferase reporter, luminescence, 16 h, DNA damage induced by 5-fluorouridine; activity change, negative = inhibition: at 46.1 µM (top of the series)
# Procedure, shortened: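 In this reporter screen, reduction of luminescence relative to DMSO vehicle indicated activity. Compounds and 5-fluorouridine were added together to 2,000 cells per well, incubated for 16 hr at 37 °C, then developed with ONE-Glo.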
# On the % scale 0 is the no-effect control and ±100 the full control effect; potency means the concentration at half of the fitted maximal effect.
Structure (SMILES),"activity change, negative = inhibition",Potency
COc1cc(OC)cc(C(=O)NC(=S)Nc2cccnc2)c1,inactive: 12.3%,
CCOC(=O)NC(NC(=S)Nc1ccccc1[N+](=O)[O-])C(Cl)(Cl)Cl (stereo not given),inactive: -11.6%,
COc1ccc(C(OC(=O)c2ccco2)C(=O)NCc2ccco2)cc1 (stereo not given),inactive: 4.16%,
COc1ccc2nc(NCCCNC(=O)c3cc(OC)c(OC)c(OC)c3)c(C#N)cc2c1,,active: 15.8 µM
COc1ccc(S(N)(=O)=O)cc1C(=O)OCCCOc1ccc(F)cc1,,"inconclusive: 29.1 µM [inhibitor, single point]"
Cc1cc(NC(=O)COC(=O)CNC(=O)c2cccs2)c([N+](=O)[O-])cc1C,inactive: 3.6%,
COc1ccc(C)cc1S(=O)(=O)n1cnc(C)c1,inactive: 16.7%,
Cc1ccn2c(c1)nc(=O)c1cc(S(=O)(=O)N3CCC(C)CC3)ccc12,,"inconclusive: 32.6 µM [activator, partial curve, poor fit]"
O=C(NC1CC1)C1CCN(C2CCN(C(=O)Cc3ccc4c(c3)OCO4)CC2)CC1,inactive: 18.9%,
O=C(NCCN1CCOCC1)Nc1ccc(Cl)cc1Cl,,"inconclusive: 29.1 µM [activator, single point]"
O=C(NCC(=O)N1CCCC(C(F)(F)F)C1)c1ccccc1Br (stereo not given),,"inconclusive: 2.31 µM [activator, partial curve]"
COc1ccc(C(=O)OCC(=O)c2ccc(C)c(S(=O)(=O)N3CCOCC3)c2)cc1OC,,active: 10.3 µM
CCCCN1CC(=O)N2[C@H]3c4ccccc4OC[C@@H]3[C@H](c3ccccc3)[C@]2(C)C1=O,,"inconclusive: 0.58 µM [inhibitor, single point]"
Cc1nccc(-c2cccc(NC(=O)c3ccccc3Cl)c2)n1,,"inconclusive: 29.1 µM [inhibitor, single point]"
CCOC(=O)c1oc2ccccc2c1N,,"inconclusive: 23.1 µM [activator, single point]"
Cc1ccc(S(=O)(=O)N2CCN(C(=O)c3cc(=O)[nH]c4ccccc34)CC2)c(C)c1,,"inconclusive: 17.8 µM [inhibitor, partial curve, poor fit]"
COc1ccc(-c2nc(-c3cccc(C)c3)no2)cc1OC,,"inconclusive: 8.2 µM [activator, partial curve]"
O=C(CSc1ncccn1)Nc1ccc2[nH]c(=O)[nH]c2c1,,"inconclusive: 35.5 µM [activator, single point]"
CCOC(=O)[C@H]1[C@H]2COc3ccc(Cl)cc3[C@@H]2N2C(=O)CN(Cc3ccccc3)C(=O)[C@@]12C,inactive: -13.2%,
Fc1ccc2[nH]c3c(N4CCN(c5ccccc5)CC4)ncnc3c2c1,,active: 7.31 µM
O=C(c1cc(Cl)ccc1Cl)N1CCN(c2ccccn2)CC1,inactive: -0.938%,
Cc1ccc(-c2nc(C#N)c(N3CCC(C(N)=O)CC3)o2)cc1,inactive: -0.539%,
COc1ccc(-c2oc(/N=C/N3CCOCC3)c(C#N)c2-c2ccc(OC)cc2)cc1,,"inconclusive: 16.4 µM [inhibitor, single point]"
O=C(CSc1nc2ccccc2s1)NCCOc1ccccc1,,"inconclusive: 20.6 µM [activator, single point]"

# A few values from the list.
# activity change, negative = inhibition with O=C(c1cc(Cl)ccc1Cl)N1CCN(c2ccccn2)CC1 is entered as inactive: -0.938%
# Potency with COc1ccc(C(=O)OCC(=O)c2ccc(C)c(S(=O)(=O)N3CCOCC3)c2)cc1OC is entered as active: 10.3 µM
# activity change, negative = inhibition with CCOC(=O)[C@H]1[C@H]2COc3ccc(Cl)cc3[C@@H]2N2C(=O)CN(Cc3ccccc3)C(=O)[C@@]12C is entered as inactive: -13.2%

# More compounds follow.

Structure (SMILES),"activity change, negative = inhibition",Potency
CCOc1ccc(S(=O)(=O)N2CCCC(C(=O)NCc3ccccn3)C2)cc1Cl (stereo not given),inactive: -3.83%,
O=C(Nc1cccnc1)c1cccc(-c2cc3ccccc3oc2=O)c1,,"inconclusive: 13 µM [activator, partial curve]"
COc1ccc(-c2sc3ccc(OC)cc3c2-c2ccc(OC)nc2)cc1,,"inconclusive: 18.3 µM [activator, partial curve, poor fit]"
Cc1cccc(OCC(=O)N2CCN(c3nnc(-c4ccccc4)c4ccccc34)CC2)c1,,"inconclusive: 16.4 µM [inhibitor, single point]"
CCOc1ccc(NC(=O)c2cc3ccccc3cc2O)cc1,,"inconclusive: 7.3 µM [activator, partial curve]"
CCc1cc(=O)oc2c(C)c(OCC(=O)N3CCCc4ccccc43)ccc12,,"inconclusive: 23.1 µM [inhibitor, single point]"
CCN(CC)C(=O)CC(c1ccc(OC)cc1)c1c(OC)cc(OC)c2ccc(=O)oc12 (stereo not given),inactive: 12.6%,
O=C(CSc1n[nH]c(-c2cccs2)n1)N1CCCC1,,"inconclusive: 6.51 µM [activator, partial curve]"
Cc1ccc(O)c(N=Cc2cc(Cc3ccccc3)cc([N+](=O)[O-])c2O)c1,,"inconclusive: 16.4 µM [inhibitor, single point]"
c1ccc(CNc2c(-c3cccc(SC4CCCCC4)c3)nc3ccccn23)cc1,,"inconclusive: 23.1 µM [inhibitor, single point]"
O=[N+]([O-])c1ccc(Oc2ccc(/C=N/O)cc2)nc1,inactive: 36.5%,
CCCCc1nn(-c2cc(Cl)ccc2OC)c2c1C(=O)CCC2,,"inconclusive: 18.4 µM [inhibitor, single point]"
Cc1ccc(OCC(O)CN2C(=O)NC(C)(C)C2=O)c(C)c1 (stereo not given),,"inconclusive: 14.6 µM [activator, partial curve, poor fit]"
Cc1ccc(/C=N\NC(=O)Cc2noc3ccccc23)cc1,,"inconclusive: 32.6 µM [activator, partial curve, poor fit]"
Cc1ccc(NC(=S)NNC(=O)c2ccc(N3CCOCC3)c([N+](=O)[O-])c2)cc1Cl,inactive: 8.41%,
FC(F)(F)c1cc(-c2cccs2)nc2cc(-c3ccccc3)nn12,inactive: 15.4%,
COc1ccccc1NC(=O)Nc1nc(CC(=O)Nc2cc(F)ccc2F)cs1,,"inconclusive: 20.6 µM [inhibitor, single point]"
Fc1ccc(-c2nc3ccccn3c2NCc2ccc3c(c2)OCO3)cc1,inactive: -7.83%,
CO/N=C(/CS(=O)(=O)c1ccc(Br)cc1)c1ccc(OC)cc1,,"inconclusive: 29.1 µM [inhibitor, single point]"
COc1ccc(-c2[nH]n(-c3ccc([N+](=O)[O-])cc3)c(=O)c2C=NCc2ccncc2)cc1,,"inconclusive: 25.9 µM [inhibitor, single point]"
COc1ccc(N2CCN(C(=O)c3c(-c4ccccc4)noc3C)CC2)cc1,,"inconclusive: 10.3 µM [inhibitor, partial curve, poor fit]"
COc1ccc2[nH]c(=O)c(CN(C(=O)c3ccccn3)C3CCCCC3)cc2c1,,"inconclusive: 8.2 µM [activator, partial curve]"
Cc1csc(SCC(=O)c2c(N)n(CC(C)C)c(=O)n(C)c2=O)n1,,active: 18.4 µM
COc1ccccc1N1CCN(C(=O)CSc2ncnc3c2cnn3-c2ccc(C)c(C)c2)CC1,,"inconclusive: 2.31 µM [activator, partial curve, poor fit]"

Structure (SMILES),"activity change, negative = inhibition",Potency
COc1ccc(N2CCN(C(=S)Nc3cc(C)ccc3C)CC2)cc1,inactive: 4.3%,
CCOc1ccc(NC(=O)C2C(c3ccccc3)C2(Cl)Cl)cc1 (stereo not given),,"inconclusive: 20.6 µM [inhibitor, single point]"
NS(=O)(=O)c1ccc(CCNC(=O)c2cc(-c3ccc(Br)cc3)nc3ccccc23)cc1,,"inconclusive: 29.1 µM [inhibitor, single point]"
O=C(c1ccc(F)cc1)c1ccc(N2CCCCC2)cc1,,"inconclusive: 8.2 µM [activator, partial curve]"
CC1(C)CC(N=c2cc(-c3ccccc3)oc3ccc(Cl)cc23)CC(C)(C)N1,,"inconclusive: 29.1 µM [inhibitor, single point]"
C#CCOc1ccc(Cl)cc1/C=C1/C(=O)ON=C1C,inactive: -3.98%,
CCc1noc(C)c1C(=O)Nc1ccc(S(=O)(=O)N2CCCC(C)C2)cc1 (stereo not given),,"inconclusive: 3.26 µM [inhibitor, partial curve]"
COCC(C)NC(=O)CSc1nc2ccccc2n1CCc1ccccc1 (stereo not given),,"inconclusive: 10.3 µM [inhibitor, partial curve]"
COc1cc(C(=O)Oc2c(CN3CCOCC3)cc(Cl)c3cccnc23)cc(OC)c1OC,,"inconclusive: 14.6 µM [inhibitor, partial curve, poor fit]"
C=CCNC(=O)CSc1nc2sc(C)c(C)c2c(=O)[nH]1,,"inconclusive: 23.1 µM [activator, partial curve, poor fit]"
CC(NC(=O)Cn1cccc1C(=O)c1ccccc1)c1ccc2c(c1)OCCO2 (stereo not given),inactive: -2.59%,
O=C(c1ccc(Cl)cc1)C1CCN(C(=O)NC2CCCCC2)CC1,,"inconclusive: 29.1 µM [inhibitor, single point]"
c1csc(-c2nc(NCC3CCCO3)c3ccccc3n2)c1 (stereo not given),inactive: -20.9%,
COc1ccc2nc(C)cc(N3CCC(C(N)=O)CC3)c2c1,inactive: 0.36%,
CC(NC(=O)COc1ccc(S(=O)(=O)N2CCCC2)cc1)c1ccccc1 (stereo not given),inactive: 11.3%,
Cc1cc(C)cc(NC(=O)N2CCC(C(=O)c3ccc(F)cc3)CC2)c1,inactive: -13.7%,
CCOc1ccc2noc3c2c1C(=O)c1ccccc1-3,,"inconclusive: 23.1 µM [activator, partial curve, poor fit]"
CC(=O)Nc1ccc(OCC(O)Cn2c(C(C)C)nc3ccccc32)cc1 (stereo not given),inactive: -4.03%,
O=C(C1CCCN(Cc2ccccc2F)C1)N1CCc2ccccc2C1 (stereo not given),,"inconclusive: 1.16 µM [inhibitor, single point]"
CCn1c(=O)cc(OCC(=O)NCCc2ccc(OC)c(OC)c2)c2ccccc21,,"inconclusive: 13 µM [activator, partial curve]"
Nc1c(C(=O)Nc2ccccc2)nnn1-c1ccc2c(c1)OCCO2,,"inconclusive: 2.31 µM [activator, partial curve, poor fit]"
O=C(CNC(=O)c1ccc2c(c1)OCCO2)N/N=C/c1cccc(Br)c1,inactive: 8.43%,
